One data set has as its target TraI-MBP (UniProt Q6TDU5). Put plainly: size exclusion chromatography. Conditions: 1:1 complex, peak I; photocleavable PC linker C3 between nt 30 and 31; EPR complexes: PBS pH 7.4, 1 mM MgCl2; recombinant protein; residues 1-1756; label: 5'-Cy5, 3'-6-FAM; single-stranded DNA.
The subject of a further data set is TraI-MBP + TraI1-1475. Description: size exclusion chromatography. The following applies: 1:1:1 complex, peak II; photocleavable PC linker C3 between nt 30 and 31; EPR complexes: PBS pH 7.4, 1 mM MgCl2; recombinant protein; label: 5'-Cy5, 3'-6-FAM; single-stranded DNA.
The target in the next data set is TraI A1105W (UniProt Q6TDU5). Description: fluorescence anisotropy. The following applies: 2-3 fold decrease stated for most mutants, Kd only in figure; Anisotropy: 10 nM 22-merAlexa488, 50 mM Tris pH 7.2, 100 mM NaCl, 25 C, 20 min; recombinant protein; residues 1-1756; protein details: N-terminal His6 with enterokinase site; label: 3'-Alexa488; single-stranded DNA.

The next data set concerns the target TraI M795A (UniProt Q6TDU5). Put plainly: fluorescence anisotropy. Conditions: 2-3 fold decrease stated for most mutants, Kd only in figure; Anisotropy: 10 nM 22-merAlexa488, 50 mM Tris pH 7.2, 100 mM NaCl, 25 C, 20 min; recombinant protein; residues 1-1756; protein details: N-terminal His6 with enterokinase site; label: 3'-Alexa488; single-stranded DNA.
For the next data set, the target named is TraI R330A (UniProt Q6TDU5). Description: fluorescence anisotropy. The following applies: 2-3 fold decrease stated for most mutants, Kd only in figure; Anisotropy: 10 nM 22-merAlexa488, 50 mM Tris pH 7.2, 100 mM NaCl, 25 C, 20 min; recombinant protein; residues 1-1756; protein details: N-terminal His6 with enterokinase site; label: 3'-Alexa488; single-stranded DNA.

A further data set addresses TraI Y190A (UniProt Q6TDU5). Description: fluorescence anisotropy. Conditions: 2-3 fold decrease stated for most mutants, Kd only in figure; Anisotropy: 10 nM 22-merAlexa488, 50 mM Tris pH 7.2, 100 mM NaCl, 25 C, 20 min; recombinant protein; residues 1-1756; protein details: N-terminal His6 with enterokinase site; label: 3'-Alexa488; single-stranded DNA.

For at least one entry, the source does not settle the construct or the ends of the probe. For part of these data: Weaker means in comparison with the reference protein, sequence or condition of that experiment. For part of these data: At least one verdict was read from the data and is not stated in words by the source.

Consider “GCAAAAACTTGTTTTTGCGTGGGGTGTGGTGCTTTTGGTGGTGAGAACC [49-merCy5*6-FAM]”, for which the binding result with TraI-MBP and with TraI-MBP + TraI1-1475 was “binds” throughout.

Turning to GGTGCTTTTGGTGGTGAGAACC [22-merAlexa488], the binding result with TraI A1105W, with TraI M795A, with TraI R330A and with TraI Y190A was “binds more weakly” throughout.

The record behind these values is article PMC5422253, “Cryo-EM Structure of a Relaxase Reveals the Molecular Basis of DNA Unwinding during Bacterial Conjugation”.
